For the experiment, the target named is T1, STUB1 (endogenous) (human (endogenous in HeLa and SiHa)), Q9UNE7.
T1 chain: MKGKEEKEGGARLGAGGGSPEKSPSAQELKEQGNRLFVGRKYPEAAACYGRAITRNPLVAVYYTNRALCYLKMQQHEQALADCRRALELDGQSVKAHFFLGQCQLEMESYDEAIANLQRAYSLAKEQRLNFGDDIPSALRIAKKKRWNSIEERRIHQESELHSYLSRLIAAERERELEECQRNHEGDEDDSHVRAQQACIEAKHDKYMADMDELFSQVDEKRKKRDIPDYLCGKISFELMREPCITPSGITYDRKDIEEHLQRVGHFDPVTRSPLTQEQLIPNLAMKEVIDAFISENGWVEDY
The experiment is described as follows: co-IP; endogenous proteins in HeLa and SiHa cells; IP with antibodies against STING, BAG2 or STUB1, IgG control; MG132 (10 µM) for 6 h; Western blot; also after siBAG2 knock-down (more STUB1 with STING). Conditions: remark: other sources report otherwise. (In general: In western blotting, separated proteins are transferred to a membrane and probed.)

Results are given in words; binding and its absence hold for the method and conditions named. In cells and extracts the contact can be indirect. Some entries that bind do so weakly or less than the wild type.

B1: BAG2 (endogenous), O95816 1-211 (protein)
chain: MAQAKINAKANEGRFCRSSSMADRSSRLLESLDQLELRVEALREAATAVEQEKEILLEMIHSIQNSQDMRQISDGEREELNLTANRLMGRTLTVEVSVETIRNPQQQESLKHATRIIDEVVNKFLDDLGNAKSHLMSLYSACSSEVPHGPVDQKFQSIVIGCALEDQKKIKRRLETLLRNIENSDKAIKLLEHSKGAGSKTLQQNAESRFN
Take B1: the binding entry is reported as “binds”.

For the origin of these results see publication PMC12362813.
